Laboratory results from PubChem BioAssay AID2685 (National Center for Advancing Translational Sciences (NCATS), 2010).
The whole screen tested about 320,000 compounds, of which about 2,100 (0.66%) were called active. Calls follow the shape of the dose curve; as a rule, active = well fitted inhibition curve with a large enough effect in the signal ratio, with a control signal flat (not every such curve was filed as active); inconclusive = small, poorly fitted or top-dose-only effect, or effect the other way, or a change in a side signal; inactive = flat fitted curve, though single readings scatter; the % refers to the signal ratio. Inconclusive results, whose numbers are uncertain, are shown. Potencies beside an inconclusive call are fits to weak or partial responses and may not hold up.
% is scaled to controls: 0 for no effect and ±100 for the full control effect; potency is read from the fitted curve at half-maximal effect.

Assay: qHTS Assay for Lipid Storage Modulators in Drosophila S3 Cells
Conditions: BODIPY lipid droplet fluorescence, 18-24 h, cells fed with added oleic acid; lipid storage change, negative = inhibition: at 46.1 µM (top of the series) unless noted
Procedure, shortened: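 Laser-scanning cytometry quantifies lipid droplet accumulation (500–530 nm total intensity; droplet/cell object ratio) in oleic acid-fed (400 uM added) Drosophila S3 cells treated with a concentration series. 20 uM Triacsin C defined 100% inhibition.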
For `NCc1c(O)ccc2ccccc12`, the lipid storage change, negative = inhibition was inconclusive: 1.73%. For `Cc1onc(-c2ccccc2)c1C(=O)N1CCN(C)CC1`, the Potency was inconclusive: 0.82 µM [falling, full curve]. In the case of `CNc1nnc(-c2cc3cc(Cl)ccc3oc2=O)s1`, the lipid storage change, negative = inhibition is reported as inconclusive: -13.7%. With `COc1ccc(N(C(=O)c2snc(C(N)=O)c2N)C(C(=O)NCC2CCCO2)c2ccc3ncccc3c2)cc1OC` (configuration not stated) the lipid storage change, negative = inhibition was inconclusive: -26.2%. With `CCC(=O)Nc1ccc(NC(=O)CSc2nnnn2C(C)C)cc1` the Potency was inconclusive: 13 µM [rising, partial curve, poor fit]. With `CN(C)CCN(C(=O)c1ccc2ccccc2c1)c1nc2c(F)cccc2s1` the lipid storage change, negative = inhibition was inconclusive: 0.224%. In the case of `COC(=O)c1cn(NC(=O)Cn2nc([N+](=O)[O-])c(Cl)c2C)c(=O)c2ccccc12`, the lipid storage change, negative = inhibition is reported as inconclusive: 0.0649%. For `Cc1ccccc1Cn1c2ccccc2c2cnn(CC(=O)NCCCN3CCN(C)CC3)c(=O)c21`, the lipid storage change, negative = inhibition was inconclusive: 172%. With `Cc1ccc(-c2nn(CCC(N)=O)c(=O)c3ccccc23)cc1` the lipid storage change, negative = inhibition was inconclusive: 213%. For `CCCc1nc2ccccc2c(=O)n1/N=C/c1ccc(O)c(O)c1`, the Potency was inconclusive: 29.1 µM [falling, single point]. In the case of `CCCSc1nc(SCC(=O)NCc2ccccc2)c2c3c(sc2n1)COC(C)(C)C3`, the Potency is reported as inconclusive: 0.0046 µM [activator, full curve, poor fit]. For `O=S(=O)(c1ccc(Cl)cc1)N1CCN=C1SCc1ccc(Cl)c(Cl)c1`, the Potency was inconclusive: 20.6 µM [activator, partial curve]. With `CCn1c(=O)c(=O)[nH]c2cc(C(=O)NC(C)c3ccc(S(N)(=O)=O)cc3)ccc21` (configuration not stated) the Potency was inconclusive: 0.651 µM [activator, partial curve, poor fit]. For `C=CC(=O)NC(C)(C)CCN1CCOCC1`, the Potency was inconclusive: 29.1 µM [cytotoxic, single point]. In the case of `COc1ccc(CN2CCN(CCc3ccccc3)C(CCO)C2)cc1Cn1cncn1` (configuration not stated), the lipid storage change, negative = inhibition is reported as inconclusive: 3.89%. For `O=C(Nc1cccc2ccccc12)N1N=CCC1c1ccccc1` (configuration not stated), the lipid storage change, negative = inhibition was inconclusive: 23.8%. In the case of `Cc1ccc(NC(=O)CC(=O)c2ccccc2)cc1C`, the Potency is reported as inconclusive: 29.1 µM [activator, single point]. In the case of `CCOC(=O)C1=C(COC(=O)COc2ccc(OCC)cc2)NC(=O)NC1C` (configuration not stated), the lipid storage change, negative = inhibition is reported as inconclusive: 25.5%. In the case of `Cc1ccc(C(C(=O)NC2CCCCC2)N2CCCC2)cc1` (configuration not stated), the lipid storage change, negative = inhibition is reported as inconclusive: 30.6%. In the case of `CCCN1CCC(NC(=O)Cc2ccccc2C)CC1`, the Potency is reported as inconclusive: 6.51 µM [falling, single point]. For `COc1ccc(S(=O)(=O)N2CCOCC2)cc1NC(=O)CCOc1ccc(C(C)(C)C)cc1`, the lipid storage change, negative = inhibition was “inconclusive”. For `Cc1nn(Cc2cccc(C(N)=O)c2)c(C)c1Br`, the lipid storage change, negative = inhibition was inconclusive: 7.3%. For `O=C(Cn1c(COc2ccccc2)nc2ccccc21)Nc1cc(Cl)cc(Cl)c1`, the Potency was inconclusive: 29.1 µM [falling, single point]. In the case of `CCCOc1cccc(C(=O)NC(=S)Nc2cccc(C(F)(F)F)c2)c1`, the Potency is reported as inconclusive: 6.51 µM [falling, partial curve]. With `O=C(Nc1nnc(CCN2CCCCC2)s1)c1ccccc1Cl` the lipid storage change, negative = inhibition was inconclusive: -68.2%. With `Cc1ccc(S(=O)(=O)N2CCN(C(=O)c3sccc3C)CC2)cc1` the lipid storage change, negative = inhibition was inconclusive: 37.7% [at 0.0737 µM]. With `COc1cccc(NC(=O)c2ccc(-n3cnnn3)cc2)c1` the lipid storage change, negative = inhibition was inconclusive: -7.72%. With `Cc1ccc(C)c(S(=O)(=O)Nc2ccc3oc(C)c(C(=O)O)c3c2)c1` the Potency was inconclusive: 4.11 µM [activator, partial curve]. In the case of `CC(O)CNc1ccc(-c2nn(C)c(=O)c3ccccc23)cc1[N+](=O)[O-]` (configuration not stated), the Potency is reported as inconclusive: 4.61 µM [falling, single point]. With `CCc1ccc([C@@H]2CC=C(C(=O)O)[C@H](c3ccccc3F)N2S(=O)(=O)c2ccc(C)cc2)cc1` the lipid storage change, negative = inhibition was inconclusive: 6.02%. With `COC(=O)c1ccc(OC(=O)c2cccnc2SC)cc1` the lipid storage change, negative = inhibition was inconclusive: -24.7%. For `Cc1cc(C)nc(NC(=O)c2c(-c3ccccc3Cl)noc2C)c1`, the lipid storage change, negative = inhibition was inconclusive: -0.861%. With `COc1cc(/C=C/C(=O)OCC(=O)NC2CCS(=O)(=O)C2)ccc1O` (configuration not stated) the lipid storage change, negative = inhibition was inconclusive: 22.4%. For `Cc1ccccc1OC1CCN(C(=O)c2cc(COc3ccccc3)on2)CC1`, the Potency was inconclusive: 16.4 µM [falling, partial curve]. In the case of `CCCCn1c(N)c(N(CC(C)C)C(=O)CSc2nnc(-c3ccc(Cl)cc3)o2)c(=O)[nH]c1=O`, the lipid storage change, negative = inhibition is reported as inconclusive: 25.9%. With `CN(CC(=O)Nc1ccc(F)cc1)C(=O)COC(=O)CSc1ccc(F)cc1` the lipid storage change, negative = inhibition was inconclusive: -5.02%. In the case of `COc1ccc(CNS(=O)(=O)c2ccc3c(c2)N(C)CCO3)cc1`, the Potency is reported as inconclusive: 1.64 µM [activator, single point]. In the case of `CS(=O)(=O)Nc1cccc(C2=NN(S(C)(=O)=O)C(c3ccc4c(c3)OCO4)C2)c1` (configuration not stated), the lipid storage change, negative = inhibition is reported as inconclusive: 26.9%. For `COc1ccc(OC)c(NC(=O)c2sc3ncnc(N4CCN(c5ccccn5)CC4)c3c2C)c1`, the lipid storage change, negative = inhibition was inconclusive: 38.5%. In the case of `CCOC(=O)c1[nH]c(C)c(C(=O)NC(C)CC)c1C` (configuration not stated), the lipid storage change, negative = inhibition is reported as inconclusive: -13.1%. With `Cc1ccc(NC(=O)C(C)Sc2n[nH]c(CNc3ccccc3)n2)cc1` (configuration not stated) the lipid storage change, negative = inhibition was inconclusive: -112%. For `Cc1cc(C)n2nc(CC(=O)NNC(=O)c3ccc(N(C)C)cc3)nc2n1`, the Potency was inconclusive: 29.1 µM [falling, single point]. For `Clc1ccccc1CSc1nnc([C@@H]2CCCN2)o1`, the lipid storage change, negative = inhibition was inconclusive: 6.43%. In the case of `CC(=O)c1cccc(NC(=O)C2C(c3ccccc3)C2(Cl)Cl)c1` (configuration not stated), the lipid storage change, negative = inhibition is reported as inconclusive: 35.6% [at 0.00295 µM]. With `COc1ccc(-n2c(=O)/c(=C\c3cccs3)s/c2=C(/C#N)C(=O)NCCN2CCOCC2)cc1` the lipid storage change, negative = inhibition was inconclusive: 21.8%. For `CCCC(c1nnnn1C1CCCC1)N1CCN(c2ccccc2F)CC1` (configuration not stated), the lipid storage change, negative = inhibition was inconclusive: 30.1%. With `CCOc1ccc(C2NC(=O)CCC2[N+](=O)[O-])cc1` (configuration not stated) the Potency was inconclusive: 13 µM [activator, partial curve, poor fit].
